Laboratory results published in US7301006 (dated 2007).

Assay: general procedure: peptide synthesis; 2-chlorotrityl resin, pre-loaded (0.5 mmol/g); PyBOP/collidine (manual syntheses)
Conditions: whole synthesis; for isolated yield: based on resin loading
[1] = scale of the general procedure 0.025 mmol

Substance: AcYEYSLDYDF
- crude mass: 17 mg
- isolated mass: 4.6 mg
- isolated yield (overall, scale of the general procedure 0.025 mmol): 5.2%
- difficulty met [1]: proceeded somewhat less efficiently, yielding several apparent deletion peptides

Substance: AcYSEYSLDYSDF
- isolated yield (minus resin for characterization, scale 0.025 mmol): 27%
- crude mass (scale 0.025 mmol): 28 mg
- isolated mass (scale 0.025 mmol): 8 mg

Substance: FmocYSEYSLDYSDF
- outcome [1]: generated in the attempted synthesis of FmocYSEYSLDYSDF (SEQ ID NO 2) via the stepwise protocol
